Assay results as given in patent CN113321733A.
No constants are given. Whether binding was seen depends on the method and setting. Some entries that bind do so weakly or less than the wild type.

By UniProt entry, the sequences of proteins in these tests, tags left out.
UniProt P19821: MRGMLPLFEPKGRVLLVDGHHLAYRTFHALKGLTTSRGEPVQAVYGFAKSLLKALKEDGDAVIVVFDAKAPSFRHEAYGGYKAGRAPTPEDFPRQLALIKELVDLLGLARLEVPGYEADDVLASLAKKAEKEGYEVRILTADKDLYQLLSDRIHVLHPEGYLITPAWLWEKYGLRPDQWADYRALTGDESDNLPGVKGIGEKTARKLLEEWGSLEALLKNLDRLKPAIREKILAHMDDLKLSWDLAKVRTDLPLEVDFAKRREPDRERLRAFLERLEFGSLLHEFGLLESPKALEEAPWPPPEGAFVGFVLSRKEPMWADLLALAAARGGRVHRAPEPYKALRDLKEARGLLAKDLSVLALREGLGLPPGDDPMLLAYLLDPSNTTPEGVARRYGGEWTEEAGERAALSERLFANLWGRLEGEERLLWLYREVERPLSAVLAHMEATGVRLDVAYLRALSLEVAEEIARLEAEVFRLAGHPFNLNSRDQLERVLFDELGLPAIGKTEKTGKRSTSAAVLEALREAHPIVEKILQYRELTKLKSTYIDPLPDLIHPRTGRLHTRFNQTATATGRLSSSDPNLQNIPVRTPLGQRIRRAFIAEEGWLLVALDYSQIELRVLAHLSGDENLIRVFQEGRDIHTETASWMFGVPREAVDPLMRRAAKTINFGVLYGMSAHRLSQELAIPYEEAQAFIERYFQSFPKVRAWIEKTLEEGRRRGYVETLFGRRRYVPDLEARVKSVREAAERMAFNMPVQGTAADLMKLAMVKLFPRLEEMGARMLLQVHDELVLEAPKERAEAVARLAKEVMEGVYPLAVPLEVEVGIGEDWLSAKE

Target: Ex Taq DNA聚合酶 (货号为RR001Q，TaKaRa公司) (UniProt P19821)
Test: molecular beacon polymerase inhibition assay, hybridoma supernatant mixed with Ex Taq

B1: 单克隆抗体1C4 (Taq DNA聚合酶单克隆抗体) (antibody, mouse IgG1, V domains shown)
VH: QVQLQQPGAELVKPGTSVKLSCKASGYNFTSHWINWVKLRPGQGLEWIGDIYPGRGSTNYNEKFRNKATLTVDTSSSSAYMQLSSLASEDSALYYCARGVFYAMDYWGQGTSVS
VL: SIVMTQTPKFLLVSAGDRVTMTCKASQSVDNDVAWYQQKPGQSPKLLIYSASNRYTGVPDRFTGSGFGTDFTFTISTVQAEDLALYFCQQYYSSPWTFGGGTNLKSN
With B1 the binding was “binds”.
